From patent US11332395B2, “Sanitary food washing stage in food production” (CHEMTREAT, INC., priority 2019, dated 2022)

Legend:
[1] = flume return water, ORP at time 0 170 mV
Procedure: Water samples were taken from the flume return (clarifier inlet) in a sugar beet factory. […] The hydrogen peroxide concentration was measured periodically over a 60 minute period. The oxidation-reduction potential (ORP) was measured over the same period.

[2] = spray table water, ORP at time 0 162 mV
Procedure: Water samples were taken from the spray table of a sugar beet factory. […] The hydrogen peroxide concentration was measured periodically over a 60 minute period. The oxidation-reduction potential (ORP) was measured over the same period.

[3] = initial H2O2 dose 60 ppm, time 5 min
[4] = initial H2O2 dose 60 ppm, time 30 min
[5] = initial H2O2 dose 60 ppm, time 45 min
[6] = initial H2O2 dose 120 ppm, time 5 min
[7] = initial H2O2 dose 120 ppm, time 30 min
[8] = initial H2O2 dose 120 ppm, time 45 min
[9] = initial H2O2 dose 180 ppm, time 5 min
[10] = initial H2O2 dose 180 ppm, time 30 min
[11] = initial H2O2 dose 180 ppm, time 45 min

**Q.** What does the source list for `OO` [H2O2, hydrogen peroxide]?
**A.** ORP [1, 3]: 214 mV; ORP [1, 4]: 211 mV; ORP [1, 5]: 215 mV; ORP [1, 6]: 230 mV; ORP [1, 7]: 220 mV; ORP [1, 8]: 222 mV; ORP [1, 9]: 240 mV; ORP [1, 10]: 225 mV; ORP [1, 11]: 227 mV; ORP [2, 3]: 216 mV; ORP [2, 4]: 220 mV; ORP [2, 5]: 231 mV; ORP [2, 6]: 242 mV; ORP [2, 7]: 215 mV; ORP [2, 8]: 226 mV; ORP [2, 9]: 256 mV; ORP [2, 10]: 217 mV; ORP [2, 11]: 222 mV

Read-outs that look alike come from different tables or passages of the source.
